In PubChem BioAssay AID1117319 (Southern Research Institute, 2015):
The campaign covered roughly 260,000 compounds. About 1,500 (0.58%) were called active. The shares of active, inactive and inconclusive entries below differ from those in the screen.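 How the source made its calls: active means inhibition above a set limit at one or more doses, reproduced on every date tested; inconclusive means results disagree between test dates, or hit never tested in dose response; inactive means the rest.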

By UniProt entry, the sequences of proteins in these tests, tags left out. Where a name states a change or a piece, a line headed by the entry shows the natural chain unless it says otherwise.
UniProt P69720: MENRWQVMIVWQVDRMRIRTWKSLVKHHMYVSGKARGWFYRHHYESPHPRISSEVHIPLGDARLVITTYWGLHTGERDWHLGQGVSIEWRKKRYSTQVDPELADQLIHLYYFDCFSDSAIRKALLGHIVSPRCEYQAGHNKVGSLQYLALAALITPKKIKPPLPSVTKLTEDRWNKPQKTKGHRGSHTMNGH
UniProt P69721: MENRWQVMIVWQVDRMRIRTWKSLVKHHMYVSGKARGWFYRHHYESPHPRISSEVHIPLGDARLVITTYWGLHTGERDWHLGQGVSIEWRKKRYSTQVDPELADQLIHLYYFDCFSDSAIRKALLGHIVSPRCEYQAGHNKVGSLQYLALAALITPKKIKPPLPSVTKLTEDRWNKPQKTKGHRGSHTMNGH
UniProt P69722: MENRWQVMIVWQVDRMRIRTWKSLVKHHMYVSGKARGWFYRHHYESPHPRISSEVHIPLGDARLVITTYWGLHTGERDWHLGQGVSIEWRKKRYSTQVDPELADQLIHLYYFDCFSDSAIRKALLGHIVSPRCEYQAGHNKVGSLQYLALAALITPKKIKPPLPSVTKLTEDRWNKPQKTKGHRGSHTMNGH
UniProt P69723: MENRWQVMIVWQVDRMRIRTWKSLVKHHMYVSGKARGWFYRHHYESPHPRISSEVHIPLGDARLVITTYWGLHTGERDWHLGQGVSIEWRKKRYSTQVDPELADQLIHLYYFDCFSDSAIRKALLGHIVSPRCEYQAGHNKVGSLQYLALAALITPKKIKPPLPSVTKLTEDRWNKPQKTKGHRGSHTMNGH
UniProt Q9HC16: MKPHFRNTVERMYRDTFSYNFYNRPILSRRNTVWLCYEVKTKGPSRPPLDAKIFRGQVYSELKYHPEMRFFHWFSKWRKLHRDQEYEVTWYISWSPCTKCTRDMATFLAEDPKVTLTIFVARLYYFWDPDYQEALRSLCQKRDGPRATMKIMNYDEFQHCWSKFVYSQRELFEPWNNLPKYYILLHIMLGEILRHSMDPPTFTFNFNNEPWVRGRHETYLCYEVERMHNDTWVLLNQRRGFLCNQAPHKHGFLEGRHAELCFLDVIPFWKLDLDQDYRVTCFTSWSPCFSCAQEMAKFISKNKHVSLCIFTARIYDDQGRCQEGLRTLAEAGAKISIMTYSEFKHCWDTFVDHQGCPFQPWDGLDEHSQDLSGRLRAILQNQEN

target: Virion infectivity factor (Human immunodeficiency virus type 1 group M subtype B (isolate BH10)) + Virion infectivity factor (Human immunodeficiency virus type 1 group M subtype B (isolate BRU/LAI)) + Virion infectivity factor (Human immunodeficiency virus type 1 group M subtype B (isolate PCV12)) + Virion infectivity factor (Human immunodeficiency virus type 1 group M subtype B (isolate HXB2)) + DNA dC->dU-editing enzyme APOBEC-3G (Homo sapiens) (UniProt P69720+P69721+P69722+P69723+Q9HC16); test: inhibitors of Vif binding to APOBEC3G peptide, primary screen, biochemical, TR-FRET, GST-Vif 1-94, biotin-A3G peptide, dose response retest (AID 1117319); conditions: stronger effect = higher value;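 further: Vif residues 1-94 fused to GST binding biotinylated APOBEC3G peptide 110-148; 0% = full assay without inhibitor and 100% = GST in place of GST-Vif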

| SMILES | inhibition |
| --- | --- |
| Cc1cc(S(=O)(=O)N2CCOCC2)ccc1OCC(=O)N1CCCCC1 | inactive: 25.7% |
| CCOC(=O)Cc1csc(NS(C)(=O)=O)n1 | inconclusive: 61.4% |
| CCOC(=O)NC(=O)CSc1nc(C)cc(C(F)(F)F)c1C#N | inconclusive: 28.9% |
| Cc1ccccc1-n1c(SCC(=O)N(C)C2CCS(=O)(=O)C2)nnc1-c1ccncc1 (stereo unspecified) | inconclusive: 50.5% |
| Oc1ccc(-c2cn3c(n2)SCC3)cc1 | inactive: 1.62% |
| CCCCN1C2=C(C(=O)CCC2)C(c2ccc(Cl)c(Cl)c2)C2=C1c1ccccc1C2=O (stereo unspecified) | inconclusive: 33.7% |
| COc1cc2c(cc1NC(=S)Nc1ccccc1C)oc1ccccc12 | inconclusive: 42% |
| COc1cc(OC)cc(C(=O)NCCN2CCOCC2)c1 | inconclusive: 42.2% |
| Cc1cc(C)n(C(=O)c2nn(C)c(C)c2[N+](=O)[O-])n1 | inconclusive: 47% |
| COc1ccc(NC(=O)CCCCCN2C(=O)CCC2=O)cc1Cl | inactive: -2.09% |
| Cc1cc2c(cc1C)NC(c1c(C)n(C)n(-c3ccccc3)c1=O)C1=C(CC(C)(C)CC1=O)N2 (stereo unspecified) | inconclusive: 35.3% |
| Cc1ccc(-c2nc3c(c(=O)[nH]c(=O)n3Cc3ccccc3)n2C)o1 | inconclusive: 41.5% |
| CCOC(=O)c1cnc2c(C(=O)OCC)cnn2c1N | inactive: 4.51% |
| COC(=O)c1ccc(C2/C(=C(/O)c3ccc(OC)cc3)C(=O)C(=O)N2CC2CCCO2)cc1 (stereo unspecified) | inconclusive: 37.8% |
| CCc1nc2ccccc2c(=O)n1NC(=O)c1c(O)c2ccccc2[nH]c1=O | inconclusive: 48.2% |
| CCOC(=O)Cc1cc(=O)n2[nH]c(-c3ccc(C)cc3)cc2n1 | inconclusive: 57.9% |
| CC1CN(C(=O)N2c3ccccc3Sc3ccccc32)CC(C)O1 (stereo unspecified) | inconclusive: 54.9% |
| O=C(Nc1ccc(-n2cccc2)cc1)C1CC1 | inconclusive: 52.1% |
| O=C(c1ccc(Cl)c(Cl)c1)N1CCC(=O)N(C(COCc2cccc(C(F)(F)F)c2)Cc2ccccc2)CC1 (stereo unspecified) | inconclusive: 46.6% |

Another view of part of the listing above:
COc1ccc(NC(=O)CCCCCN2C(=O)CCC2=O)cc1Cl
  inhibition: inactive: -2.09%
Cc1cc2c(cc1C)NC(c1c(C)n(C)n(-c3ccccc3)c1=O)C1=C(CC(C)(C)CC1=O)N2 (stereo unspecified)
  inhibition: inconclusive: 35.3%
Cc1ccc(-c2nc3c(c(=O)[nH]c(=O)n3Cc3ccccc3)n2C)o1
  inhibition: inconclusive: 41.5%

(more compounds)

| SMILES | inhibition |
| --- | --- |
| C=C(C)CN=C1NN=C(c2cc(C)n(-c3ccc(C)cc3)c2C)CS1 | inconclusive: 35.6% |
| COc1ccc(-n2cc(CN[C@H]3CCCCNC3=O)c(-c3cccc(F)c3)n2)cc1 | inconclusive: 37.5% |
| CSCC[C@H](NC(=O)OC(C)(C)C)C(=O)N/N=C/c1ccc2nccnc2c1 | inconclusive: 38.8% |
| O=C(NCCN1CCOCC1)NC1(C(F)(F)F)Oc2ccccc2O1 | inconclusive: 49.3% |
| Cc1ccc(/C=N/c2sc3c(c2C#N)CCC3)o1 | inconclusive: 41.1% |
| Cc1ccc(C(=O)OCn2ncc(Cl)c(Cl)c2=O)cc1 | inconclusive: 40.5% |
| CCC1=C(OC(=O)N(CC)CC)N2C(=O)OC(=NCC(=O)OC)[C@]2(C)[C@H]2C1=CC[C@H]1C(=O)N(CC)C(=O)[C@H]12 | inconclusive: 53% |
| Cc1cc2oc(C(=O)Nc3cccnc3)c(C)c2cc1C | inconclusive: 42.4% |
| Cc1csc(N/N=C/c2ccc(O)c([N+](=O)[O-])c2)n1 | inconclusive: 45.2% |
| COc1ccc(Oc2ccc(/C=C/C(=O)c3ccc(O)cc3)cc2[N+](=O)[O-])cc1 | inconclusive: 55.2% |
| COC(=O)Cn1cc(/C=C/[N+](=O)[O-])c2ccccc21 | inconclusive: 33.3% |
| COc1cccc(CNn2cnnc2)c1OCc1ccc(F)cc1 | inconclusive: 37.4% |
| N#C/C(=C/c1ccc(N2CCCCCC2)o1)c1ccc(F)cc1 | inactive: 5.86% |
| COc1cc2cc(C)c(SCC(=O)N3CCN(C(=O)c4ccco4)CC3)nc2cc1OC | inconclusive: 38.8% |
| Cc1ccc(Cc2c(-c3ccccc3)nc3cc(C)ccn23)cc1 | inactive: -4.74% |
| CCCN(CCC)CCCNC(=O)CNC(=O)c1nn(-c2ccc(OC)cc2)c(=O)c2ccccc12 | inconclusive: 38.2% |
| COc1ccc(NCC(=O)Nc2ccc(C#N)cc2)cc1Cl | inconclusive: 33.1% |
| CC(C)NCC(O)c1cc(O)cc(O)c1 (stereo unspecified) | inactive: 5.35% |
| N#Cc1c(N)n(CCNC(=O)c2cccs2)c2nc3ccccc3nc12 | inconclusive: 33.8% |

| SMILES | inhibition |
| --- | --- |
| CCn1c(C)nc2cc(C(=O)NNC(=S)Nc3ccccc3)ccc21 | inconclusive: 40.2% |
| CCN(C(=O)COC(=O)c1cccnc1Nc1ccccc1F)C1CCS(=O)(=O)C1 (stereo unspecified) | inconclusive: 36.1% |
| C[C@@H](O)[C@@H]1NC(=O)c2cc([N+](=O)[O-])cc(I)c2NCC[C@@H](C(N)=O)NC(=O)CNC1=O | inconclusive: 47.6% |
| CN1CCN(C(=O)c2ccc3nc(-c4ccccc4)c(-c4ccccc4)nc3c2)CC1 | inactive: 5.63% |
| CN1c2ccccc2C(C)(C)[C@]12C=Cc1cc(O)ccc1O2 | inconclusive: 48% |
| C1CCc2c(nnc3c2-c2nonc2CC3)C1 | inconclusive: 62.5% |
| C=CCNC(=S)Nc1sc2c(c1C(=O)OCC)CCN(C(=O)OCC)C2 | inconclusive: 39.5% |
| Oc1ccc(/C=N/NC(=S)NCCN2CCOCC2)c(O)c1 | inactive: 24.1% |
| COc1ccc(NC(=O)N/C=C/c2ccco2)cc1 | inconclusive: 35.7% |
| O=C(NCc1ccccc1)C1=C[C@@H](c2ccc(C(F)(F)F)cc2)C[C@@H](OCc2ccc(CO)cc2)O1 | inconclusive: 54.4% |
| CC(C)OC(=O)CC(=O)CSc1nc2c(cc1C#N)CCCCCC2 | inconclusive: 38.8% |
| CCCC(CCC)C(=O)Oc1cc(C)[nH]c(=O)c1[N+](=O)[O-] | inconclusive: 38.2% |
| O=C(Nc1ccnn1C1CCN(C(=O)c2ccc(F)cc2)CC1)C1CCOC1 (stereo unspecified) | inconclusive: 51.9% |
| O=C(N/C(=C/c1ccco1)C(=O)N1CCOCC1)c1cccs1 | inconclusive: 36.6% |
| O=C(/C=C/c1ccco1)Nc1ccccn1 | inactive: 1.75% |
| CC(=O)Oc1ccccc1C1=NN(C(=O)/C=C/c2ccccc2)C(c2ccccc2)C1 (stereo unspecified) | inconclusive: 38.6% |
| Cc1cccc(C(=O)NNS(=O)(=O)c2ccc(F)cc2)c1 | inactive: -1.42% |
| CCc1cc2c(=O)[nH]c(Cc3ccc(Cl)cc3)nc2s1 | inconclusive: 40.6% |
